Reference: article PMC11096129

Amino acid sequences for entries named in this document (tags omitted). A change or cut given only in a name is not applied to a line headed by its entry.
UniProt P43351: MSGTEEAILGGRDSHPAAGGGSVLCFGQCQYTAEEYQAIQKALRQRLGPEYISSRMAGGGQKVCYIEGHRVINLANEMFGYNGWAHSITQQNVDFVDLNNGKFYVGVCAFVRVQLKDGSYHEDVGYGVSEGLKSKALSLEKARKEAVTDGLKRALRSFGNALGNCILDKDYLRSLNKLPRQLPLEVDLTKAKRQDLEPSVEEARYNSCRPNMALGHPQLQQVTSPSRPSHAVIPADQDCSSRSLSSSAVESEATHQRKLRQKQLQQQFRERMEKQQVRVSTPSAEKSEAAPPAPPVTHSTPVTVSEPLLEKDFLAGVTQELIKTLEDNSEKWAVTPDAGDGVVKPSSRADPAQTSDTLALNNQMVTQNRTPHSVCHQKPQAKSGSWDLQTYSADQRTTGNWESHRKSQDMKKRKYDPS

Molecular target: RAD52-OR (open ring) (Homo sapiens) (UniProt P43351)
Experiment: SEC
Conditions: RAD52 preloaded on SSA2-Cy5 before annealing; recombinant protein; residues 1-418; label: 3' Cy5; single-stranded DNA

AACCTGCAGGTTGAGGAGCCCAAACCTCACTGGTAAATTCGCAGCGTTGACTAGACGGATTCGATA [SSA2-Cy5]
binding result: binds

The exact form of at least one protein or probe is not confirmed. At least one verdict was read from the data and is not stated in words by the source.
